In US6133313A, “Insecticidal avocadofurans and triolein” (The Regents of the University of California, priority 1998, dated 2000):

System: neonate S. exigua
Test: individual toxicity of avocadofurans and triolein in artificial diet
Set-up: species or system Spodoptera exigua
Conditions: in vivo
Method: In this study, individual activity of avocadofurans was investigated quantitatively. For this purpose, eight concentrations of the avocadofurans (1) and (4) and triolein (8) were tested. Results are seen in FIG. 6.
Following pilot studies, eight concentrations of each were tested: 0, 0.5, 1, 1.5, 2, 2.5, 3, and 3.5 μmoles g^~1 diet. Also, five concentrations of triolein were tested: 0; 1,000; 2,000; 3,000; and 4,000 μg g^~1 diet. Because triolein was not compared to a structurally similar compound, a more standard dietary formulation of μg g-^1 was used rather than ^~ moles g^-1 in all triolein-treated bioassays.
Treated and control diet were prepared as described above. For each concentration the compounds were dissolved in 10 ml of Tween solution and mixed using an ultrasonic homogenizer. Untreated diet was added to make a total of 100 g and then vortexed for 3 mm. Control diet was prepared by mixing 10 ml of the Tween solution with 90 g of artificial diet to produce a final weight of 100 g. Control and treated diets were poured into 30 ml plastic cups. One neonate was placed in each cup and cups were held in an incubator. Fifteen larvae were tested at each concentration, and assays were replicated 4 times (total of 60 larvae/treatment). For each diet treatment, 9-d larval instar and weight, pupal weights, times to pupation, and larval mortality were recorded.
EC (effective concentration) values were calculated by subtracting the mean larval weight for each treatment from the mean weight of the controls, and dividing by the mean weight of the controls. LC (lethal concentration) values were obtained using probit analysis as described in Probit Analysis (1971) Cambridge University Press, Cambridge, UK. GI (growth index) and RGI (relative growth index) values were calculated as described in J. Chem. Ecol., 19:1109 (1993), but using an imax of 3 (the stage attained by most control larvae after 7 d). Statistical comparisons were conducted using SuperAnova Abacus Concept Inc., Berkeley, Calif. (1989).

| Structure (SMILES) | Slope ± SE |
| --- | --- |
| CCCCCCCCCCCCCCCCCc1ccco1 [2-(heptadecyl)furan (4), 2-(heptadecyl)furan] | 2.132 ± 0.431 |
| CCCCCCCCCCCCCCCc1ccco1 [2-(pentadecyl)furan (1), 2-(pentadecyl)furan] | 6.523 ± 0.817 |
| CCCCCCCC/C=C\CCCCCCCC(=O)OCC(COC(=O)CCCCCCC/C=C\CCCCCCCC)OC(=O)CCCCCCC/C=C\CCCCCCCC [Triolein (8), triolein] | 2.385 ± 0.555 |
